PubChem BioAssay AID652243, Drosophila RNAi Screening Center – 2013
The deposit covers about 24,000 reagents; shown is a random part of those that have a named target and a result. In the full data, 246 (1%) got an active call. 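Plates not normalised; calls are printed but the firefly/Renilla ratio behind them is not deposited; fold cut for lowering reported inconsistently.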 The raw values are shown without normalisation. The numbers tell different reagents against one gene apart. A plus sign joins genes that one reagent is predicted to hit. No sequences are given here. Not given: the amount of reagent.

Assay: 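Fly genes required for human androgen receptor driven transcription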 (primary screen)
Cell system: Drosophila S2R+ cells
Knock-down reagent: long dsRNA against Drosophila genes
Timing: 72 h (48 h, then 24 h hormone)
Treatment: synthetic androgen R1881 at 10 nM for 24 h
Detection: 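Firefly light from an androgen-responsive reporter and Renilla control light per well, raw and unnormalised, for each of two replicates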
Direction: firefly reporter light: higher = more light from androgen-responsive reporter; Renilla control light: higher = more constitutive control signal (cell number, transfection)
Active means: 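Hit when the log firefly-to-Renilla ratio dropped or increased by a fixed fold versus the mean of GFP or LacZ controls across duplicate plates; lowering cut given as 1.5 and as 3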
Meaning of the calls: active = hit: reporter lowered or raised; inactive = no hit

gene	reagent	firefly reporter light, replicate 1	firefly reporter light, replicate 2	Renilla control light, replicate 1	Renilla control light, replicate 2	Call
SkpC	1	3.74e5	2.92e5	1.18e6	3.82e5	inactive
SkpC	2	6.87e5	5.02e5	1.03e6	4.84e5	inactive
CG7889	1	8.56e5	9.37e5	2.19e6	1.95e6	inactive
CG7889	2	5.08e5	6.32e5	5.48e5	5.33e5	inactive
mei-9	1	2.00e5	2.75e5	1.27e6	1.45e6	inactive
smash	1	40837	52370	3.88e5	3.64e5	inactive
smash	2	29039	39605	2.74e5	3.33e5	inactive
smash	3	48976	57769	1.38e6	1.55e6	inactive
smash	4	1.09e5	1.42e5	3.73e6	3.26e6	inactive
smash	5	3.35e5	2.23e5	4.91e5	6.06e5	inactive

Look-ups from the entries so far:
Under “Renilla control light, replicate 2”, CG7889 #2 reads 5.33e5
Value of SkpC #1 under “firefly reporter light, replicate 2”: 2.92e5

Next records follow:
gene	reagent	firefly reporter light, replicate 1	firefly reporter light, replicate 2	Renilla control light, replicate 1	Renilla control light, replicate 2	Call
dbo	1	6.15e5	3.87e5	2.78e6	1.61e6	inactive
CG16775	1	3.18e5	2.74e5	3.26e6	3.21e6	inactive
CG13228	1	1.85e5	1.78e5	1.29e6	9.47e5	inactive
CG13228	2	7.40e5	4.99e5	3.43e6	2.08e6	inactive
CG4830	1	1.25e5	1.87e5	2.33e6	2.06e6	inactive
MetRS-m	1	1.15e5	94983	6.32e5	8.07e5	inactive
MetRS-m	2	82449	77806	1.27e6	1.59e6	inactive
CG34168	1	2.70e5	3.00e5	2.71e6	3.54e6	inactive
CG13365	1	1.53e5	2.17e5	4.61e6	4.30e6	inactive
CG13365	2	2.37e5	2.39e5	9.28e5	5.65e5	inactive
wgn	1	5.38e5	3.39e5	1.84e6	7.00e5	inactive
CR43670 + CR43671 + CR43669	1	1.48e5	1.96e5	4.87e5	7.45e5	inactive
CR43670 + CR43671 + CR43669	2	1.77e5	1.67e5	5.84e5	8.19e5	inactive
gdl-ORF39 + gdl	1	2.47e5	2.30e5	2.55e6	1.88e6	inactive
